At least one compound was matched to its structure with a doubt left.
System: HDAC
Assay: In vitro HDAC-inhibition assay (Fluor de Lys fluorescent substrate)
Format: biochemical
Settings: HDAC enzyme source
Method: 1) In Vitro HDAC-Inhibition Assay:
This assay measures a compound's ability to inhibit acetyl-lysine deacetylation in vitro and was used as both a primary screening method as well as for IC50 determinations of confirmed inhibitors. The assay is performed in vitro using an HDAC enzyme source (e.g. partially purified nuclear extract or immunopurified HDAC complexes) and a proprietary fluorescent substrate/developer system (HDAC Quantizyme Fluor de Lys Fluorescent Activity Assay, BIOMOL). The assay is run in 1,536-well Greiner white-bottom plates using the following volumes and order of addition:
Step 1: Enzyme (2.5 μL) source added to plate (from refrigerated container)
Step 2: Compounds (50 nL) added with pin transfer device
Step 3: Fluor de Lys (2.5 μL) substrate added, incubate at RT, 30 minutes
Step 4: Developer (5 μL) solution is added (containing TSA), to stop reaction
Step 5: Plate Reader—data collection
The deacetylated fluorophore is excited with 360 nm light and the emitted light (460 nm) is detected on an automated fluorometric plate reader (Aquest, Molecular Devices).

Q: Which IC50 does the source give for `CC(=O)SCC(=O)c1ccc(NS(=O)(=O)c2ccc(OCC(C)(C)CN(C)C)cc2)nc1` [Example 3, Thioacetic acid S-(2-{6-[4-(3-dimethylamino-2,2-dimethyl-propoxy)-benzenesulfonylamino]-pyridin-3-yl}-2-oxo-ethyl) ester] here?
A: < 1000 nM

Reference: patent US20070135438A1, “INHIBITORS OF HISTONE DEACETYLASE FOR THE TREATMENT OF DISEASE” (KALYPSYS, INC., priority 2005, published 2007)
